Fewer than 10 of roughly 2,000 compounds were called active.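 How the source made its calls: active means growth inhibition of at least 75% in every replicate, which also brings the mean inhibition to 75% or more; inconclusive means mean inhibition 75% or more but some replicate under 75%; inactive means the rest.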 The list shows a part of the results.
Test: growth inhibition of PfHsp90-dependent yeast, primary screen, antimalarial PfHsp90 inhibitor project, S. cerevisiae, BacTiter-Glo luminescence (AID 504594);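 further: 0% = DMSO neutral control wells and 100% = 20 µM radicicol control wells; higher value means stronger growth inhibition because the sign is flipped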
Settings: S. cerevisiae expressing PfHsp90, BacTiter-Glo growth, 48 h; at 9.4 µM; hits give high values

| Compound | growth inhibition |
| --- | --- |
| CSc1cccc(NC(=O)/C=C/c2ccccc2)c1 | inactive: -2.48% |
| COc1c2occc2c(OC)c2c(=O)cc(C)oc12 | inactive: 5.39% |
| COc1ccc(CCN(C)CCCC(C#N)(c2cc(OC)c(OC)c(OC)c2)C(C)C)cc1OC (configuration not stated) | inactive: -2.04% |
| O=C(O)C(O)c1ccccc1 (configuration not stated) | inactive: -20.3% |
| CC(C)(C)C(=O)N1CCCC1C(=O)O (configuration not stated) | inactive: -5.36% |
| COc1ccc(-c2coc3cc(OC(=O)N4CCOCC4)ccc3c2=O)cc1 | inactive: -8.44% |
| COc1cccc2c1OCC1COc3c(c(=O)n(C)c(=O)n3C)C21 (configuration not stated) | inactive: 1.47% |
| CC1(C)CC(NC(=O)C23CCC(C)(C(=O)C2=O)C3(C)C)CC(C)(C)N1 (configuration not stated) | inactive: 4.32% |
| N=c1c[n+](N2CCOCC2)[n-]o1 | inactive: -3.2% |
| CN1CCN(CCCN2c3ccccc3Sc3ccc(Cl)cc32)CC1 | inactive: 11.5% |
| CC(C)CC(=O)OC1C(N2CCOCC2)c2c(ccc(/C=C/C(=O)N3CCOCC3)c2O)OC1(C)C (configuration not stated) | inactive: 5.89% |
| Nc1cccc2c1nnn2C1OC(CO)C(O)C(O)C1O (configuration not stated) | inactive: -0.754% |
| Cc1ccccc1C(=O)Oc1ccc(Sc2ccc(O)cc2)cc1 | inactive: 2.85% |
| O=C(NCCN1CCCCC1)c1c(O)c2ccccc2[nH]c1=O | inactive: -5.79% |
| CCN(CC)C1=C(Cl)C(=O)C(Cl)C12OCCO2 (configuration not stated) | inactive: -8.81% |
| Cc1ccc(N2CCN(C(=S)c3ccc(-c4cccc([N+](=O)[O-])c4)o3)CC2)cc1 | inactive: 16.7% |
| COc1ccc(-c2cc(=Nc3ccc(C)cc3)c3ccccc3o2)cc1 | inactive: -19.5% |
| Cc1ccc(C(=O)NC(=S)NCCCN2CCOCC2)cc1 | inactive: -0.501% |
| CCOC(=O)C1C(=O)CC(C)(O)C(C(=O)OCC)C1/C=C/c1ccccc1 (configuration not stated) | inactive: 3.38% |
| CCc1cn([C@H]2C[C@H](O)[C@@H](CO)O2)c(=O)[nH]c1=O | inactive: 1.39% |
| CSCCC(NC(=O)/C(=C/c1ccc2c(c1)OCO2)NC(=O)c1cccc([N+](=O)[O-])c1)C(=O)O (configuration not stated) | inactive: -8.96% |
| CC(C)c1ccc(NC(=O)CNS(=O)(=O)c2ccc(F)cc2)cc1 | inactive: 5.55% |
| Oc1ccccc1OCCOc1ccccc1OCCOc1ccccc1O | inactive: 1.41% |

| Compound | growth inhibition |
| --- | --- |
| CCOCC(=O)Nc1nc2ccccc2s1 | inactive: 2.46% |
| O=c1[nH]c(=O)n(C2CCCO2)cc1F (configuration not stated) | inactive: -0.727% |
| CC(NCCC(c1ccccc1)c1ccccc1)c1ccccc1 (configuration not stated) | inactive: 3.17% |
| CC(C)c1ccccc1OCCNC(=S)NC(=O)c1cccnc1 | inactive: 4.15% |
| Cc1ccc2nc(C)c3c(c2c1)OC(C(C)(Cl)Br)C3 (configuration not stated) | inactive: -1.28% |
| CN(C)c1nc(N(C)C)nc(N(C)C)n1 | inactive: 7.13% |
| O=C(CCc1c[nH]c2ccccc12)NCc1ccco1 | inactive: -4.69% |
| COC(=O)CSc1nc2ccc(N)cc2s1 | inactive: -7.52% |
| Nc1ccc2[nH]ncc2c1 | inactive: 6.95% |
| C=C(C)COc1ccc(-c2nc(N)ncc2-c2ccc(OC)cc2)c(O)c1 | inactive: -13.9% |
| Cc1ccc(S(=O)(=O)N2CCC(C(=O)N[C@@H](C)C(=O)NC3CCS(=O)(=O)C3)CC2)cc1 (some centres not stated) | inactive: -8.37% |
| NNC(=O)c1cc(O)c(O)c(O)c1 | inactive: -2.58% |
| O=C(O)c1cc(-c2ccccc2)nc2ccccc12 | inactive: -0.536% |
| CC(=O)O[C@]1(C(C)=O)CC[C@H]2[C@@H]3C[C@H](C)C4=CC(=O)CC[C@]4(C)[C@H]3CC[C@@]21C | inactive: -7.46% |
| C[C@H]1C[C@@H]2[C@H]([C@@H](O)C[C@@]3(C)[C@H]2CC[C@]3(O)C(=O)CO)[C@@]2(C)C=CC(=O)C=C12 | inactive: 1.1% |
| O=C1[C@@H]2[C@H](Cc3ccc(O)cc3)N[C@]3(C(=O)Nc4ccccc43)[C@@H]2C(=O)N1c1ccc(F)cc1 | inactive: 6.94% |
| CCOC(=O)N1CCN(Cc2nc(Cc3cccc(F)c3)no2)CC1 | inactive: 3.92% |
| COc1ccc(NC(=O)Nc2ccc(C(C)C)cc2)cc1 | inactive: 0.108% |
| COc1cccc(NC(=O)C2CC(=O)OC23CCOC(C)(C)C3)c1 (configuration not stated) | inactive: 2.76% |
| CC12CCC(C(=O)NCc3ccccn3)(OC1=O)C2(C)C (configuration not stated) | inactive: -9.47% |
| COC(=O)c1ccc(-c2ncc(-c3cccc4ccccc34)o2)cc1 | inactive: -6.2% |
| O=C(Nc1ccccc1C(=O)N1CCCCCC1)c1ccccc1Cl | inactive: -13% |
| CCCNCC(O)COc1ccccc1C(=O)CCc1ccccc1 (configuration not stated) | inactive: -0.563% |

Quoted from the listing:
For growth inhibition, CCCNCC(O)COc1ccccc1C(=O)CCc1ccccc1 (configuration not stated) is entered as inactive: -0.563%
For growth inhibition, CN(C)c1nc(N(C)C)nc(N(C)C)n1 is entered as inactive: 7.13%

Next compounds follow.

| Compound | growth inhibition |
| --- | --- |
| CN1CCc2c(n(CC(O)CN(CCO)CCO)c3ccccc23)C1=O (configuration not stated) | inactive: 2.23% |
| O=[N+]([O-])c1cccc2cn[nH]c12 | inactive: -7.02% |
| COc1ccc(-c2noc(-c3ccccc3-c3ccccc3)n2)cc1 | inactive: -0.851% |
| O=C(Nc1ncc2c(n1)CC(c1ccco1)CC2=O)c1ccco1 (configuration not stated) | inactive: -12.4% |
| COC(=O)c1[nH]c2ccc(C)cc2c1NC(=O)CN1CCc2cc(OC)c(OC)cc2C1 | inactive: -11.5% |
| COc1ccc(-c2[nH]ncc2C=O)cc1OC | inactive: 7.91% |
| COc1ccc(C2CNC(=O)C2)cc1OC1CCCC1 (configuration not stated) | inactive: -4.56% |
| COc1cccc2c(=O)c(C/C=C(/C)Cl)c(C)[nH]c12 | inactive: 18.2% |
| CC(C)c1ccc(/C=C/C(=O)O)cc1 | inactive: -10.9% |
| N#Cc1c2c(c(-c3ccccc3)[nH]c1=O)CCCC2 | inactive: 21.3% |
| Cc1nc(-c2coc3c(CN(C)C)c(O)ccc3c2=O)cs1 | inactive: -0.278% |
| Cc1c(O)c(=O)ccn1C | inactive: 5.38% |
| CCC(=O)O[C@]1(C(=O)CCl)[C@@H](C)C[C@H]2[C@@H]3CCC4=CC(=O)C=C[C@]4(C)[C@@]3(F)[C@@H](O)C[C@@]21C | inactive: -0.602% |
| Cc1ccc(C(=O)N2CC3(C(C)C)CN(C(=O)c4ccc(C)cc4)CC(C(C)C)(C2)C3=O)cc1 | inactive: 2.69% |
| CN(C)CC/C=C1\c2ccccc2Sc2ccc(Cl)cc21 | inactive: 2.84% |
| CCOc1cccc(N2C(=O)CC(N(CCc3ccc(OC)c(OC)c3)C(=O)CC)C2=O)c1 (configuration not stated) | inactive: 2.48% |
| CCN(CCCCCN(C)C)Cc1cc2ccccc2o1 | inactive: -0.0353% |
| O=C1OCCN1/N=C/c1ccc([N+](=O)[O-])o1 | inactive: -15.3% |
| COc1ccc(CCN(C)CC(=O)Nc2cc(C)nc3ccccc23)cc1OC | inactive: -16.9% |
| COc1ccc(NC2=C(Cl)C(=O)N(c3ccccc3)C2=O)c(OC)c1 | inactive: -1.15% |
| COc1ccc(NC(=O)C2CSC3c4ccccc4C(=O)N23)cc1 (configuration not stated) | inactive: -11.1% |
| O=C(COc1ccccc1)Nc1ccc2c(c1)C(=O)N(CC1CCCO1)C2=O (configuration not stated) | inactive: 14.9% |
| COc1cc(Cl)cc2c1Sc1ccccc1/C2=C/CCN(C)C | inactive: 2.48% |

| Compound | growth inhibition |
| --- | --- |
| COc1ccc(C2CC(c3c(O)cc(C)oc3=O)=NCCS2)c(OC)c1 (configuration not stated) | inactive: -2.18% |
| CCOC(=O)c1cccc(C(=O)OCC)n1 | inactive: -8.31% |
| O=C(Cc1ccccc1[N+](=O)[O-])NCCCN1CCOCC1 | inactive: 3.4% |
| CC(C)(C)[C@]1(O)CCN2C[C@H]3c4ccccc4CCc4cccc(c43)[C@@H]2C1 | inactive: -9.67% |
| CN1[C@@H]2CC[C@H]1CC(OC(=O)C(CO)c1ccccc1)C2 (some centres not stated) | inactive: -1.73% |
| COc1ccc(C2=C(CN(C)C)C(c3ccccc3)c3ccccc3O2)cc1 (configuration not stated) | inactive: -7.98% |
| COc1ccc(CNCCC2(C(C)C)CCOC(C)(C)C2)cc1 (configuration not stated) | inactive: -1.55% |
| CC1Cc2ccccc2N1NC(=O)c1ccc(Cl)c(S(N)(=O)=O)c1 (configuration not stated) | inactive: -8.98% |
| CC(=O)Oc1cc2oc(=O)cc(C)c2cc1OC(C)=O | inactive: -2.57% |
| CC(=O)O[C@H]1C(=O)[C@@]2(C)[C@H]([C@H](OC(=O)c3ccccc3)[C@]3(O)C[C@H](OC(=O)[C@H](O)C(NC(=O)c4ccccc4)c4ccccc4)C(C)=C1C3(C)C)[C@]1(OC(C)=O)CO[C@@H]1C[C@@H]2O (some centres not stated) | inactive: 4.3% |
| Cn1c2[n+](c3ccc(Cl)cc3c1=O)Cc1ccccc1-2 | inactive: 9.2% |
| O=C(NCCC(c1ccccc1)c1ccco1)c1cccs1 (configuration not stated) | inactive: -5.77% |
| Cc1ccc(C(=O)Nc2ccccc2C(=O)NC(C(=O)O)C(C)C)cc1 (configuration not stated) | inactive: 1.89% |
| O=C(CCCn1c(=O)oc2ccccc21)N1CCN(c2ccc(F)cc2)CC1 | inactive: -2.64% |
| CCn1c(SCC(=O)c2ccccc2)nc2ccccc2c1=O | inactive: -10.3% |
| COc1ccc(C(=O)C2CCCCC2=O)cc1 (configuration not stated) | inactive: -0.967% |
| Cc1ccc(-n2cc(CNCCN3CCOC3=O)c(-c3ccc(F)cc3)n2)cc1 | inactive: -1.08% |
| COc1ccc(N2C(=O)[C@@H]3Cc4ccccc4CN3C2=O)cc1 | inactive: -1.63% |
| CCC(C(=O)OCCN(CC)CC)c1ccccc1 (configuration not stated) | inactive: -6.66% |
| CC(C)(C)n1c(=O)[nH]c2c(c1=O)CCC2 | inactive: 3.02% |
| O=C1CC2(CCCC2)CC(=O)N1CCCCN1CCN(c2ncccn2)CC1 | inactive: 5.29% |
| CC[C@H]1OC(=O)[C@H](C)[C@@H](O[C@H]2C[C@@](C)(OC)[C@@H](O)[C@H](C)O2)[C@H](C)[C@@H](O[C@@H]2O[C@H](C)C[C@H](N(C)C)[C@H]2O)[C@](C)(O)C[C@@H](C)[C@@H]2N[C@@H](COCCOC)O[C@H]([C@H]2C)[C@]1(C)O | inactive: 7.68% |
| COc1ccc2c(CC(=O)NCC3CCC(C(=O)O)CC3)cc(=O)oc2c1 (configuration not stated) | inactive: 8.32% |

3 entries already listed, arranged by SMILES length, ascending.

| Compound | growth inhibition |
| --- | --- |
| CC(C)(C)C(=O)N1CCCC1C(=O)O (configuration not stated) | inactive: -5.36% |
| CN1CCc2c(n(CC(O)CN(CCO)CCO)c3ccccc23)C1=O (configuration not stated) | inactive: 2.23% |
| COc1ccc(CCN(C)CC(=O)Nc2cc(C)nc3ccccc23)cc1OC | inactive: -16.9% |

— PubChem BioAssay AID504594 (Broad Institute, 2011)
